{"source": "patent US6469027B1", "about": "“N-methyl-D-aspartate (NMDA) receptor blockers for the prevention of atherosclerosis” (The Board of Regents of the University of Nebraska, priority 1996, dated 2002)", "origin": "cited, not measured here", "tested_on": "rat liver cells", "conditions": "cited from earlier work", "data": [{"smiles": "N[C@@H](CCS)C(=O)O", "note": "[homocysteine]", "values": [{"measurement": "bound H[cys] associated with membrane particulate", "result": 20, "unit": "%"}, {"measurement": "protein bound H[cys] in the cytosol fraction", "result": 30, "unit": "%"}]}]}
